From the supplement of paper PMC3353916
This is a noisy data set.

Test system: Sindbis virus TE/5'2J-GFP
Test: percent infected (GFP+ in RFP+ ISG-expressing cells); higher = more infection (less antiviral activity)
Conditions: experiment: primary screen (single well)

In the case of “MVSYWDTGVLLCALLSCLLLTGSSSGSKLKDPELSLKGTQHIMQAGQTLHLQCRGEAAHKWSLPEMVSKESERLSITKSACGRNGKQFCSTLTLNTAQANHTGFYSCKYLAVPTSKKKETESAIYIFISDTGRPFVEMYSEIPEIIHMTEGRELVIPCRVTSPNITVTLKKFPLDTLIPDGKRIIWDSRKGFIISNATYKEIGLLTCEATVNGHLYKTNYLTHRQTNTIIDVQISTPRPVKLLRGHTLVLNCTATTPLNTRVQMTWSYPDEKNKRASVRRRIDQSNSHANIFYSVLTIDKMQNKDKGLYTCRVRSGPSFKSVNTSVHIYDKAFITVKHRKQQVLETVAGKRSYRLSMKVKAFPSPEVVWLKDGLPATEKSARYLTRGYSLIIKDVTEEDAGNYTILLSIKQSNVFKNLTATLIVNVKPQIYEKAVSSFPDPALYPLGSRQILTCTAYGIPQPTIKWFWHPCNHNHSEARCDFCSNNEESFILDADSNMGNRIESITQRMAIIEGKNKMASTLVVADSRISGIYICIASNKVGTVGRNISFYITDVPNGFHVNLEKMPTEGEDLKLSCTVNKFLYRDVTWILLRTVNNRTMHYSISKQKMAITKEHSITLNLTIMNVSLQDSGTYACRARNVYTGEEILQKKEITIRDQEAPYLLRNLSDHTVAISSSTTLDCHANGVPEPQITWFKNNHKIQQEPGIILGPGSSTLFIERVTEEDEGVYHCKATNQKGSVESSAYLTVQGTSDKSNLELITLTCTCVAATLFWLLLTLFIRKMKRSSSEIKTDYLSIIMDPDEVPLDEQCERLPYDASKWEFARERLKLGKSLGRGAFGKVVQASAFGIKKSPTCRTVAVKMLKEGATASEYKALMTELKILTHIGHHLNVVNLLGACTKQGGPLMVIVEYCKYGNLSNYLKSKRDLFFLNKDAALHMEPKKEKMEPGLEQGKKPRLDSVTSSESFASSGFQEDKSLSDVEEEEDSDGFYKEPITMEDLISYSFQVARGMEFLSSRKCIHRDLAARNILLSENNVVKICDFGLARDIYKNPDYVRKGDTRLPLKWMAPESIFDKIYSTKSDVWSYGVLLWEIFSLGGSPYPGVQMDEDFCSRLREGMRMRAPEYSTPEIYQIMLDCWHRDPKERPRFAELVEKLGDLLQANVQQDGKDYIPINAILTGNSGFTYSTPAFSEDFFKESISAPKFNSGSSDDVRYVNAFKFMSLERIKTFEELLPNATSMFDDYQGDSSTLLASPMLKRFTWTDSKPKASLKIDLRVTSKSKESGLSDVSRPSFCHSSCGHVSEGKRRFTYDHAELERKIACCSPPPDYNSVVLYSTPPI [FLT1]”, the percent infected (BHK/HA-Zeo (control)) is reported as 99.1% and the percent infected (BHK/NZAP-Zeo (ZAP)) is reported as 98.5%.

Work on “MVVDFWTWEQTFQELIQEAKPRATWTLKLDGNLQLDCLAQGWKQYQQRAFGWFRCSSCQRSWASAQVQILCHTYWEHWTSQGQVRMRLFGQRCQKCSWSQYEMPEFSSDSTMRILSNLVQHILKKYYGNGTRKSPEMPVILEVSLEGSHDTANCEACTLGICGQGLKSCMTKPSKSLLPHLKTGNSSPGIGAVYLANQAKNQSAEAKEAKGSGYEKLGPSRDPDPLNICVFILLLVFIVVKCFTSE [RTP4]” yielded a percent infected (BHK/HA-Zeo (control)) of 98.3% and a percent infected (BHK/NZAP-Zeo (ZAP)) of 95.6%.

“MVVSEVDIAKADPAAASHPLLLNGDATVAQKNPGSVAENNLCSQYEEKVRPCIDLIDSLRALGVEQDLALPAIAVIGDQSSGKSSVLEALSGVALPRGSGIVTRCPLVLKLKKLVNEDKWRGKVSYQDYEIEISDASEVEKEINKAQNAIAGEGMGISHELITLEISSRDVPDLTLIDLPGITRVAVGNQPADIGYKIKTLIKKYIQRQETISLVVVPSNVDIATTEALSMAQEVDPEGDRTIGILTKPDLVDKGTEDKVVDVVRNLVFHLKKGYMIVKCRGQQEIQDQLSLSEALQREKIFFENHPYFRDLLEEGKATVPCLAEKLTSELITHICKSLPLLENQIKETHQRITEELQKYGVDIPEDENEKMFFLIDKVNAFNQDITALMQGEETVGEEDIRLFTRLRHEFHKWSTIIENNFQEGHKILSRKIQKFENQYRGRELPGFVNYRTFETIVKQQIKALEEPAVDMLHTVTDMVRLAFTDVSIKNFEEFFNLHRTAKSKIEDIRAEQEREGEKLIRLHFQMEQIVYCQDQVYRGALQKVREKELEEEKKKKSWDFGAFQSSSATDSSMEEIFQHLMAYHQEASKRISSHIPLIIQFFMLQTYGQQLQKAMLQLLQDKDTYSWLLKERSDTSDKRKFLKERLARLTQARRRLAQFPG [MX1]” was tested, and the percent infected (BHK/HA-Zeo (control)) was 96.6% and the percent infected (BHK/NZAP-Zeo (ZAP)) was 90.6%.

In the case of “MVWKVAVFLSVALGIGAVPIDDPEDGGKHWVVIVAGSNGWYNYRHQADACHAYQIIHRNGIPDEQIVVMMYDDIAYSEDNPTPGIVINRPNGTDVYQGVPKDYTGEDVTPQNFLAVLRGDAEAVKGIGSGKVLKSGPQDHVFIYFTDHGSTGILVFPNEDLHVKDLNETIHYMYKHKMYRKMVFYIEACESGSMMNHLPDNINVYATTAANPRESSYACYYDEKRSTYLGDWYSVNWMEDSDVEDLTKETLHKQYHLVKSHTNTSHVMQYGNKTISTMKVMQFQGMKRKASSPVPLPPVTHLDLTPSPDVPLTIMKRKLMNTNDLEESRQLTEEIQRHLDARHLIEKSVRKIVSLLAASEAEVEQLLSERAPLTGHSCYPEALLHFRTHCFNWHSPTYEYALRHLYVLVNLCEKPYPLHRIKLSMDHVCLGHY [LGMN]”, the percent infected (BHK/HA-Zeo (control)) is reported as 87.4% and the percent infected (BHK/NZAP-Zeo (ZAP)) is reported as 92.2%.

Substance “MWCIVLFSLLAWVYAEPTMYGEILSPNYPQAYPSEVEKSWDIEVPEGYGIHLYFTHLDIELSENCAYDSVQIISGDTEEGRLCGQRSSNNPHSPIVEEFQVPYNKLQVIFKSDFSNEERFTGFAAYYVATDINECTDFVDVPCSHFCNNFIGGYFCSCPPEYFLHDDMKNCGVNCSGDVFTALIGEIASPNYPKPYPENSRCEYQIRLEKGFQVVVTLRREDFDVEAADSAGNCLDSLVFVAGDRQFGPYCGHGFPGPLNIETKSNALDIIFQTDLTGQKKGWKLRYHGDPMPCPKEDTPNSVWEPAKAKYVFRDVVQITCLDGFEVVEGRVGATSFYSTCQSNGKWSNSKLKCQPVDCGIPESIENGKVEDPESTLFGSVIRYTCEEPYYYMENGGGGEYHCAGNGSWVNEVLGPELPKCVPVCGVPREPFEEKQRIIGGSDADIKNFPWQVFFDNPWAGGALINEYWVLTAAHVVEGNREPTMYVGSTSVQTSRLAKSKMLTPEHVFIHPGWKLLEVPEGRTNFDNDIALVRLKDPVKMGPTVSPICLPGTSSDYNLMDGDLGLISGWGRTEKRDRAVRLKAARLPVAPLRKCKEVKVEKPTADAEAYVFTPNMICAGGEKGMDSCKGDSGGAFAVQDPNDKTKFYAAGLVSWGPQCGTYGLYTRVKNYVDWIMKTMQENSTPRED [C1S]” has a percent infected (BHK/HA-Zeo (control)) of 98.4% and a percent infected (BHK/NZAP-Zeo (ZAP)) of 96.7%.

“MWTFLGIATFTYFYKKFGDFITLANREVLLCVLVFLSLGLVLSYRCRHRNGGLLGRQQSGSQFALFSDILSGLPFIGFFWAKSPPESENKEQLEARRRRKGTNISETSLIGTAACTSTSSQNDPEVIIVGAGVLGSALAAVLSRDGRKVTVIERDLKEPDRIVGEFLQPGGYHVLKDLGLGDTVEGLDAQVVNGYMIHDQESKSEVQIPYPLSENNQVQSGRAFHHGRFIMSLRKAAMAEPNAKFIEGVVLQLLEEDDVVMGVQYKDKETGDIKELHAPLTVVADGLFSKFRKSLVSNKVSVSSHFVGFLMKNAPQFKANHAELILANPSPVLIYQISSSETRVLVDIRGEMPRNLREYMVEKIYPQIPDHLKEPFLEATDNSHLRSMPASFLPPSSVKKRGVLLLGDAYNMRHPLTGGGMTVAFKDIKLWRKLLKGIPDLYDDAAIFEAKKSFYWARKTSHSFVVNILAQALYELFSATDDSLHQLRKACFLYFKLGGECVAGPVGLLSVLSPNPLVLIGHFFAVAIYAVYFCFKSEPWITKPRALLSSGAVLYKACSVIFPLIYSEMKYMVH [SQLE]” gave a percent infected (BHK/HA-Zeo (control)) of 98% and a percent infected (BHK/NZAP-Zeo (ZAP)) of 89.9%.

“MYFCWGADSRELQRRRTAGSPGAELLQAASGERHSLLLLTNHRVLSCGDNSRGQLGRRGAQRGELPEPIQALETLIVDLVSCGKEHSLAVCHKGRVFAWGAGSEGQLGIGEFKEISFTPKKIMTLNDIKIIQVSCGHYHSLALSKDSQVFSWGKNSHGQLGLGKEFPSQASPQRVRSLEGIPLAQVAAGGAHSFALSLCGTSFGWGSNSAGQLALSGRNVPVQSNKPLSVGALKNLGVVYISCGDAHTAVLTQDGKVFTFGDNRSGQLGYSPTPEKRGPQLVERIDGLVSQIDCGSYHTLAYVHTTGQVVSFGHGPSDTSKPTHPEALTENFDISCLISAEDFVDVQVKHIFAGTYANFVTTHQDTSSTRAPGKTLPEISRISQSMAEKWIAVKRRSTEHEMAKSEIRMIFSSPACLTASFLKKRGTGETTSIDVDLEMARDTFKKLTKKEWISSMITTCLEDDLLRALPCHSPHQEALSVFLLLPECPVMHDSKNWKNLVVPFAKAVCEMSKQSLQVLKKCWAFLQESSLNPLIQMLKAAIISQLLHQTKTEQDHCNVKALLGMMKELHKVNKANCRLPENTFNINELSNLLNFYIDRGRQLFRDNHLIPAETPSPVIFSDFPFIFNSLSKIKLLQADSHIKMQMSEKKAYMLMHETILQKKDEFPPSPRFILRVRRSRLVKDALRQLSQAEATDFCKVLVVEFINEICPESGGVSSEFFHCMFEEMTKPEYGMFMYPEMGSCMWFPAKPKPEKKRYFLFGMLCGLSLFNLNVANLPFPLALYKKLLDQKPSLEDLKELSPRLGKSLQEVLDDAADDIGDALCIRFSIHWDQNDVDLIPNGISIPVDQTNKRDYVSKYIDYIFNVSVKAVYEEFQRGFYRVCEKEILRHFYPEELMTAIIGNTDYDWKQFEQNSKYEQGYQKSHPTIQLFWKAFHKLTLDEKKKFLFFLTGRDRLHARGIQKMEIVFRCPETFSERDHPTSITCHNILSLPKYSTMERMEEALQVAINNNRGFVSPMLTQS [HERC6]” showed a percent infected (BHK/HA-Zeo (control)) of 99% and a percent infected (BHK/NZAP-Zeo (ZAP)) of 96.7%.

NCOA3 was tested, and the percent infected (BHK/HA-Zeo (control)) was 98.3% and the percent infected (BHK/NZAP-Zeo (ZAP)) was 92%.

In the case of PCTK2, the percent infected (BHK/HA-Zeo (control)) is reported as 96.8% and the percent infected (BHK/NZAP-Zeo (ZAP)) is reported as 80.1%.

PDK1 gave a percent infected (BHK/HA-Zeo (control)) of 95.9% and a percent infected (BHK/NZAP-Zeo (ZAP)) of 83.5%.

PIM3 gave a percent infected (BHK/HA-Zeo (control)) of 98.2% and a percent infected (BHK/NZAP-Zeo (ZAP)) of 97.1%.

Substance PNRC1 has a percent infected (BHK/HA-Zeo (control)) of 97.2% and a percent infected (BHK/NZAP-Zeo (ZAP)) of 91.9%.

PRIC285 showed a percent infected (BHK/HA-Zeo (control)) of 95.9% and a percent infected (BHK/NZAP-Zeo (ZAP)) of 83.7%.

STAT2 showed a percent infected (BHK/HA-Zeo (control)) of 98.5% and a percent infected (BHK/NZAP-Zeo (ZAP)) of 96.8%.

TIMP1 gave a percent infected (BHK/HA-Zeo (control)) of 90.1% and a percent infected (BHK/NZAP-Zeo (ZAP)) of 81.8%.

In the case of UBE2L6, the percent infected (BHK/HA-Zeo (control)) is reported as 93.9% and the percent infected (BHK/NZAP-Zeo (ZAP)) is reported as 80.3%.
